These are yes or no findings as the source states them, for the method shown. A result given as binding can be weak or reduced; the word gives no strength.
Target: T1, CED-4 apoptosome (C. elegans, UniProt P30429 1-549)
T1 construct: CED-4, C. elegans; also called CED-4b; CED-4c; source: recombinantly expressed, obtained as previously reported (Qi et al, 2010), purified (SEC)
T1 sequence: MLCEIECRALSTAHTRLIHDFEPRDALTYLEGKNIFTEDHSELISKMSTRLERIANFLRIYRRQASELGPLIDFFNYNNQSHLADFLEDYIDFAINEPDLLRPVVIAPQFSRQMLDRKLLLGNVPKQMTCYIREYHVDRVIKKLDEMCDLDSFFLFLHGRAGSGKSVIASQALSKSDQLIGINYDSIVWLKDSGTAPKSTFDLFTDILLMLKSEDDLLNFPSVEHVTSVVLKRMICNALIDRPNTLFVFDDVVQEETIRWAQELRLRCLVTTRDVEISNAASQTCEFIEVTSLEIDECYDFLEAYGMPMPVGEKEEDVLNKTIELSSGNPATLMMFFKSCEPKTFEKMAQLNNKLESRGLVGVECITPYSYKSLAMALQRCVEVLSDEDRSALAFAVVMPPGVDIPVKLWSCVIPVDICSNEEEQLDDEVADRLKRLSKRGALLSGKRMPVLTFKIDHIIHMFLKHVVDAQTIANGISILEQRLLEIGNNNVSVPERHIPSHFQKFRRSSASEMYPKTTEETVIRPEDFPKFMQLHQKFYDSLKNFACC
Assay: cryo-EM structure; holoenzyme: ternary complex of CED-4, CED-3 CARD and CED-3 catalytic domain, assembled at 4°C for 1 h, purified by SEC in 20 mM HEPES pH 7.5, 10 mM KCl, 1.5 mM MgCl2, 1 mM EDTA, 1 mM DTT; about 2 uM; both purified

binding: binds
Substance: CED-3 catalytic domain (in the holoenzyme) (C. elegans) (domain or fragment)
